These results are taken from PMC11352961 (RSC Chemical Biology, 2024).

Strings that start with PEPTIDE1 are HELM notation: dots part the residues, brackets hold end groups and non-standard residues.

This data set is described as follows: general procedure: Fmoc solid-phase peptide synthesis; Rink Amide AM resin LL (Novabiochem). The conditions noted are these: whole synthesis, TFA salt.
As for “PEPTIDE1{[dR].[dL].[dK].[dL].[dL].[dK].[dL].[dL].[dK].[dK].[am]}|PEPTIDE2{[dR].[dL].[dK].[dL].[dL].[dK].[dL].[dL]}|PEPTIDE3{[dR].[dL].[dK].[dL].[dL]}|PEPTIDE4{[dR].[dL].[dK].[dL].[dL]}|PEPTIDE5{[dR].[dL]}|PEPTIDE6{[dR].[dL]}|PEPTIDE7{[dR].[dL]}|PEPTIDE8{[dR].[dL]}|CHEM1{[C18]}$PEPTIDE1,PEPTIDE2,9:R3-8:R2|PEPTIDE1,PEPTIDE3,6:R3-5:R2|PEPTIDE2,PEPTIDE4,6:R3-5:R2|PEPTIDE1,PEPTIDE5,3:R3-2:R2|PEPTIDE2,PEPTIDE6,3:R3-2:R2|PEPTIDE3,PEPTIDE7,3:R3-2:R2|PEPTIDE4,PEPTIDE8,3:R3-2:R2|PEPTIDE1,CHEM1,10:R3-1:R2$$$V2.0”, the isolated yield was 2.3%. Next, “PEPTIDE1{R.L.K.R.L.K.R.L.K.[Lys(C18)].[am]}|PEPTIDE2{R.L.K.R.L.K.R.L}|PEPTIDE3{R.L.K.R.L}|PEPTIDE4{R.L.K.R.L}|PEPTIDE5{R.L}|PEPTIDE6{R.L}|PEPTIDE7{R.L}|PEPTIDE8{R.L}$PEPTIDE1,PEPTIDE2,9:R3-8:R2|PEPTIDE1,PEPTIDE3,6:R3-5:R2|PEPTIDE2,PEPTIDE4,6:R3-5:R2|PEPTIDE1,PEPTIDE5,3:R3-2:R2|PEPTIDE2,PEPTIDE6,3:R3-2:R2|PEPTIDE3,PEPTIDE7,3:R3-2:R2|PEPTIDE4,PEPTIDE8,3:R3-2:R2$$$V2.0”: 2.8%; “PEPTIDE1{[dK].[dL].[dK].[dK].[dL].[dK].[dK].[dL].[dK].[D-Lys(C18)].[am]}|PEPTIDE2{[dK].[dL].[dK].[dK].[dL].[dK].[dK].[dL]}|PEPTIDE3{[dK].[dL].[dK].[dK].[dL]}|PEPTIDE4{[dK].[dL].[dK].[dK].[dL]}|PEPTIDE5{[dK].[dL]}|PEPTIDE6{[dK].[dL]}|PEPTIDE7{[dK].[dL]}|PEPTIDE8{[dK].[dL]}$PEPTIDE1,PEPTIDE2,9:R3-8:R2|PEPTIDE1,PEPTIDE3,6:R3-5:R2|PEPTIDE2,PEPTIDE4,6:R3-5:R2|PEPTIDE1,PEPTIDE5,3:R3-2:R2|PEPTIDE2,PEPTIDE6,3:R3-2:R2|PEPTIDE3,PEPTIDE7,3:R3-2:R2|PEPTIDE4,PEPTIDE8,3:R3-2:R2$$$V2.0”: 7.6%. Take “PEPTIDE1{[dR].[dL].[dK].[dR].[dL].[dK].[dR].[dL].[dK].[dK].[dA].[am]}|PEPTIDE2{[dR].[dL].[dK].[dR].[dL].[dK].[dR].[dL]}|PEPTIDE3{[dR].[dL].[dK].[dR].[dL]}|PEPTIDE4{[dR].[dL].[dK].[dR].[dL]}|PEPTIDE5{[dR].[dL]}|PEPTIDE6{[dR].[dL]}|PEPTIDE7{[dR].[dL]}|PEPTIDE8{[dR].[dL]}|CHEM1{[C18]}$PEPTIDE1,PEPTIDE2,9:R3-8:R2|PEPTIDE1,PEPTIDE3,6:R3-5:R2|PEPTIDE2,PEPTIDE4,6:R3-5:R2|PEPTIDE1,PEPTIDE5,3:R3-2:R2|PEPTIDE2,PEPTIDE6,3:R3-2:R2|PEPTIDE3,PEPTIDE7,3:R3-2:R2|PEPTIDE4,PEPTIDE8,3:R3-2:R2|PEPTIDE1,CHEM1,10:R3-1:R2$$$V2.0”: the isolated yield is recorded as 2.3%. Regarding “PEPTIDE1{[dR].[dL].[dK].[dR].[dL].[dK].[dR].[dL].[dK].[dK].[am]}|PEPTIDE2{[dR].[dL].[dK].[dR].[dL].[dK].[dR].[dL]}|PEPTIDE3{[dR].[dL].[dK].[dR].[dL]}|PEPTIDE4{[dR].[dL].[dK].[dR].[dL]}|PEPTIDE5{[dR].[dL]}|PEPTIDE6{[dR].[dL]}|PEPTIDE7{[dR].[dL]}|PEPTIDE8{[dR].[dL]}|CHEM1{[C16]}$PEPTIDE1,PEPTIDE2,9:R3-8:R2|PEPTIDE1,PEPTIDE3,6:R3-5:R2|PEPTIDE2,PEPTIDE4,6:R3-5:R2|PEPTIDE1,PEPTIDE5,3:R3-2:R2|PEPTIDE2,PEPTIDE6,3:R3-2:R2|PEPTIDE3,PEPTIDE7,3:R3-2:R2|PEPTIDE4,PEPTIDE8,3:R3-2:R2|PEPTIDE1,CHEM1,10:R3-1:R2$$$V2.0”, the isolated yield was determined as 5.1%. Next, “PEPTIDE1{R.L.K.R.L.K.R.L.K.[Lys(C18)].A.[am]}|PEPTIDE2{R.L.K.R.L.K.R.L}|PEPTIDE3{R.L.K.R.L}|PEPTIDE4{R.L.K.R.L}|PEPTIDE5{R.L}|PEPTIDE6{R.L}|PEPTIDE7{R.L}|PEPTIDE8{R.L}$PEPTIDE1,PEPTIDE2,9:R3-8:R2|PEPTIDE1,PEPTIDE3,6:R3-5:R2|PEPTIDE2,PEPTIDE4,6:R3-5:R2|PEPTIDE1,PEPTIDE5,3:R3-2:R2|PEPTIDE2,PEPTIDE6,3:R3-2:R2|PEPTIDE3,PEPTIDE7,3:R3-2:R2|PEPTIDE4,PEPTIDE8,3:R3-2:R2$$$V2.0”: 4.7%; “PEPTIDE1{[dK].[dL].[dK].[dK].[dL].[dK].[dK].[dL].[dK].[D-Lys(C18)].[dA].[am]}|PEPTIDE2{[dK].[dL].[dK].[dK].[dL].[dK].[dK].[dL]}|PEPTIDE3{[dK].[dL].[dK].[dK].[dL]}|PEPTIDE4{[dK].[dL].[dK].[dK].[dL]}|PEPTIDE5{[dK].[dL]}|PEPTIDE6{[dK].[dL]}|PEPTIDE7{[dK].[dL]}|PEPTIDE8{[dK].[dL]}$PEPTIDE1,PEPTIDE2,9:R3-8:R2|PEPTIDE1,PEPTIDE3,6:R3-5:R2|PEPTIDE2,PEPTIDE4,6:R3-5:R2|PEPTIDE1,PEPTIDE5,3:R3-2:R2|PEPTIDE2,PEPTIDE6,3:R3-2:R2|PEPTIDE3,PEPTIDE7,3:R3-2:R2|PEPTIDE4,PEPTIDE8,3:R3-2:R2$$$V2.0”: 9%.

In the case of “PEPTIDE1{[dK].[dL].[dK].[dK].[dL].[dK].[dK].[dL].[dK].[D-Lys(C18)].[D-Lys(C18)].[am]}|PEPTIDE2{[dK].[dL].[dK].[dK].[dL].[dK].[dK].[dL]}|PEPTIDE3{[dK].[dL].[dK].[dK].[dL]}|PEPTIDE4{[dK].[dL].[dK].[dK].[dL]}|PEPTIDE5{[dK].[dL]}|PEPTIDE6{[dK].[dL]}|PEPTIDE7{[dK].[dL]}|PEPTIDE8{[dK].[dL]}$PEPTIDE1,PEPTIDE2,9:R3-8:R2|PEPTIDE1,PEPTIDE3,6:R3-5:R2|PEPTIDE2,PEPTIDE4,6:R3-5:R2|PEPTIDE1,PEPTIDE5,3:R3-2:R2|PEPTIDE2,PEPTIDE6,3:R3-2:R2|PEPTIDE3,PEPTIDE7,3:R3-2:R2|PEPTIDE4,PEPTIDE8,3:R3-2:R2$$$V2.0”, the isolated yield turned out to be 2.6%. Turning to “PEPTIDE1{[dR].[dL].[dK].[dR].[dL].[dK].[dR].[dL].[dK].[dK].[am]}|PEPTIDE2{[dR].[dL].[dK].[dR].[dL].[dK].[dR].[dL]}|PEPTIDE3{[dR].[dL].[dK].[dR].[dL]}|PEPTIDE4{[dR].[dL].[dK].[dR].[dL]}|PEPTIDE5{[dR].[dL]}|PEPTIDE6{[dR].[dL]}|PEPTIDE7{[dR].[dL]}|PEPTIDE8{[dR].[dL]}|CHEM1{[C18]}$PEPTIDE1,PEPTIDE2,9:R3-8:R2|PEPTIDE1,PEPTIDE3,6:R3-5:R2|PEPTIDE2,PEPTIDE4,6:R3-5:R2|PEPTIDE1,PEPTIDE5,3:R3-2:R2|PEPTIDE2,PEPTIDE6,3:R3-2:R2|PEPTIDE3,PEPTIDE7,3:R3-2:R2|PEPTIDE4,PEPTIDE8,3:R3-2:R2|PEPTIDE1,CHEM1,10:R3-1:R2$$$V2.0”, the isolated yield was 4.7%. For “PEPTIDE1{[dK].[dL].[dK].[dK].[dL].[dK].[dK].[dL].[dK].[dL].[dL].[dL].[dL].[dL].[am]}|PEPTIDE2{[dK].[dL].[dK].[dK].[dL].[dK].[dK].[dL]}|PEPTIDE3{[dK].[dL].[dK].[dK].[dL]}|PEPTIDE4{[dK].[dL].[dK].[dK].[dL]}|PEPTIDE5{[dK].[dL]}|PEPTIDE6{[dK].[dL]}|PEPTIDE7{[dK].[dL]}|PEPTIDE8{[dK].[dL]}$PEPTIDE1,PEPTIDE2,9:R3-8:R2|PEPTIDE1,PEPTIDE3,6:R3-5:R2|PEPTIDE2,PEPTIDE4,6:R3-5:R2|PEPTIDE1,PEPTIDE5,3:R3-2:R2|PEPTIDE2,PEPTIDE6,3:R3-2:R2|PEPTIDE3,PEPTIDE7,3:R3-2:R2|PEPTIDE4,PEPTIDE8,3:R3-2:R2$$$V2.0”, the isolated yield is listed as 9.5%. Next, “PEPTIDE1{[dK].[dL].[dK].[dL].[dL].[dK].[dL].[dL].[dK].[D-Lys(C18)].[am]}|PEPTIDE2{[dK].[dL].[dK].[dL].[dL].[dK].[dL].[dL]}|PEPTIDE3{[dK].[dL].[dK].[dL].[dL]}|PEPTIDE4{[dK].[dL].[dK].[dL].[dL]}|PEPTIDE5{[dK].[dL]}|PEPTIDE6{[dK].[dL]}|PEPTIDE7{[dK].[dL]}|PEPTIDE8{[dK].[dL]}$PEPTIDE1,PEPTIDE2,9:R3-8:R2|PEPTIDE1,PEPTIDE3,6:R3-5:R2|PEPTIDE2,PEPTIDE4,6:R3-5:R2|PEPTIDE1,PEPTIDE5,3:R3-2:R2|PEPTIDE2,PEPTIDE6,3:R3-2:R2|PEPTIDE3,PEPTIDE7,3:R3-2:R2|PEPTIDE4,PEPTIDE8,3:R3-2:R2$$$V2.0”: 5.8%. Next, “PEPTIDE1{[dK].[dL].[dK].[dK].[dL].[dK].[dK].[dL].[dK].[D-Lys(C16)].[am]}|PEPTIDE2{[dK].[dL].[dK].[dK].[dL].[dK].[dK].[dL]}|PEPTIDE3{[dK].[dL].[dK].[dK].[dL]}|PEPTIDE4{[dK].[dL].[dK].[dK].[dL]}|PEPTIDE5{[dK].[dL]}|PEPTIDE6{[dK].[dL]}|PEPTIDE7{[dK].[dL]}|PEPTIDE8{[dK].[dL]}$PEPTIDE1,PEPTIDE2,9:R3-8:R2|PEPTIDE1,PEPTIDE3,6:R3-5:R2|PEPTIDE2,PEPTIDE4,6:R3-5:R2|PEPTIDE1,PEPTIDE5,3:R3-2:R2|PEPTIDE2,PEPTIDE6,3:R3-2:R2|PEPTIDE3,PEPTIDE7,3:R3-2:R2|PEPTIDE4,PEPTIDE8,3:R3-2:R2$$$V2.0”: 8.6%; “PEPTIDE1{R.L.K.R.L.K.R.L.K.[Lys(C18)].C.[am]}|PEPTIDE2{R.L.K.R.L.K.R.L}|PEPTIDE3{R.L.K.R.L}|PEPTIDE4{R.L.K.R.L}|PEPTIDE5{R.L}|PEPTIDE6{R.L}|PEPTIDE7{R.L}|PEPTIDE8{R.L}$PEPTIDE1,PEPTIDE2,9:R3-8:R2|PEPTIDE1,PEPTIDE3,6:R3-5:R2|PEPTIDE2,PEPTIDE4,6:R3-5:R2|PEPTIDE1,PEPTIDE5,3:R3-2:R2|PEPTIDE2,PEPTIDE6,3:R3-2:R2|PEPTIDE3,PEPTIDE7,3:R3-2:R2|PEPTIDE4,PEPTIDE8,3:R3-2:R2$$$V2.0”: 2.3%.
